The supplement of paper PMC10849652
This is one part of the list.

By UniProt entry, the sequences of proteins in these tests, tags left out. Where a name states a change or a piece, a line headed by the entry shows the natural chain unless it says otherwise.
UniProt P20936: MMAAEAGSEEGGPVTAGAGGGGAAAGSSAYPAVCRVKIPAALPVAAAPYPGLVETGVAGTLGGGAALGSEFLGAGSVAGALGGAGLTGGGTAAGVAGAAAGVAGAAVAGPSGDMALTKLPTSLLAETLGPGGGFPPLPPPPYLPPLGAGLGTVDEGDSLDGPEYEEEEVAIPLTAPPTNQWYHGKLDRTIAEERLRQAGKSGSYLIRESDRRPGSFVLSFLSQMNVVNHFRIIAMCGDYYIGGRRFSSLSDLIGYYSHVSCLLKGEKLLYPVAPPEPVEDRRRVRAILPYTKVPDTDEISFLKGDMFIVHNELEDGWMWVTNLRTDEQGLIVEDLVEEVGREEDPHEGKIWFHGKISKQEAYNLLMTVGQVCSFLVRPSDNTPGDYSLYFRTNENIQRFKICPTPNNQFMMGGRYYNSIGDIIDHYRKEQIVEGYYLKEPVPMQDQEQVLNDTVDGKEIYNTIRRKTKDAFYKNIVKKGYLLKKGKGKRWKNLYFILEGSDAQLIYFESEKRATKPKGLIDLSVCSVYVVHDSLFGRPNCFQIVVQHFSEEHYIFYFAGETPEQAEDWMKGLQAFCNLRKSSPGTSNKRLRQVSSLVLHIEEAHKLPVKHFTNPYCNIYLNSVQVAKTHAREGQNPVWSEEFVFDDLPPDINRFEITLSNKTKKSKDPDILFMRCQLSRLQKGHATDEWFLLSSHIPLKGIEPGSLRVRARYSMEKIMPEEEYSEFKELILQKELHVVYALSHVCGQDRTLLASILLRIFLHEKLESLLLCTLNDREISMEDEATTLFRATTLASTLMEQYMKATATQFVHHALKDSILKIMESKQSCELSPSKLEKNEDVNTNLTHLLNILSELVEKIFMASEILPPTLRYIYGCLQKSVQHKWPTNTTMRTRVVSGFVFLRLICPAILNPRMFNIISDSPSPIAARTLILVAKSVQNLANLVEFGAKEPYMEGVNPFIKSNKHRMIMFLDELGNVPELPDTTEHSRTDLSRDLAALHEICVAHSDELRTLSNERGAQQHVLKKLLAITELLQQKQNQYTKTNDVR
UniProt Q9UKM9: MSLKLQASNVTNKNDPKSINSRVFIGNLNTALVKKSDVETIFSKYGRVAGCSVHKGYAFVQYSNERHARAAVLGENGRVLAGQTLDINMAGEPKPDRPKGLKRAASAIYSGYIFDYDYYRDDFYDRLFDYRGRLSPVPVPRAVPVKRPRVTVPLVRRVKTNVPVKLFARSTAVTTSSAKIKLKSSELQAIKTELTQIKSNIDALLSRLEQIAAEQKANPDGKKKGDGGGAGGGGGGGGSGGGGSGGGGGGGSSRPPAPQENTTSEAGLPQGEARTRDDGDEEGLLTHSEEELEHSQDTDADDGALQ
UniProt Q86X10: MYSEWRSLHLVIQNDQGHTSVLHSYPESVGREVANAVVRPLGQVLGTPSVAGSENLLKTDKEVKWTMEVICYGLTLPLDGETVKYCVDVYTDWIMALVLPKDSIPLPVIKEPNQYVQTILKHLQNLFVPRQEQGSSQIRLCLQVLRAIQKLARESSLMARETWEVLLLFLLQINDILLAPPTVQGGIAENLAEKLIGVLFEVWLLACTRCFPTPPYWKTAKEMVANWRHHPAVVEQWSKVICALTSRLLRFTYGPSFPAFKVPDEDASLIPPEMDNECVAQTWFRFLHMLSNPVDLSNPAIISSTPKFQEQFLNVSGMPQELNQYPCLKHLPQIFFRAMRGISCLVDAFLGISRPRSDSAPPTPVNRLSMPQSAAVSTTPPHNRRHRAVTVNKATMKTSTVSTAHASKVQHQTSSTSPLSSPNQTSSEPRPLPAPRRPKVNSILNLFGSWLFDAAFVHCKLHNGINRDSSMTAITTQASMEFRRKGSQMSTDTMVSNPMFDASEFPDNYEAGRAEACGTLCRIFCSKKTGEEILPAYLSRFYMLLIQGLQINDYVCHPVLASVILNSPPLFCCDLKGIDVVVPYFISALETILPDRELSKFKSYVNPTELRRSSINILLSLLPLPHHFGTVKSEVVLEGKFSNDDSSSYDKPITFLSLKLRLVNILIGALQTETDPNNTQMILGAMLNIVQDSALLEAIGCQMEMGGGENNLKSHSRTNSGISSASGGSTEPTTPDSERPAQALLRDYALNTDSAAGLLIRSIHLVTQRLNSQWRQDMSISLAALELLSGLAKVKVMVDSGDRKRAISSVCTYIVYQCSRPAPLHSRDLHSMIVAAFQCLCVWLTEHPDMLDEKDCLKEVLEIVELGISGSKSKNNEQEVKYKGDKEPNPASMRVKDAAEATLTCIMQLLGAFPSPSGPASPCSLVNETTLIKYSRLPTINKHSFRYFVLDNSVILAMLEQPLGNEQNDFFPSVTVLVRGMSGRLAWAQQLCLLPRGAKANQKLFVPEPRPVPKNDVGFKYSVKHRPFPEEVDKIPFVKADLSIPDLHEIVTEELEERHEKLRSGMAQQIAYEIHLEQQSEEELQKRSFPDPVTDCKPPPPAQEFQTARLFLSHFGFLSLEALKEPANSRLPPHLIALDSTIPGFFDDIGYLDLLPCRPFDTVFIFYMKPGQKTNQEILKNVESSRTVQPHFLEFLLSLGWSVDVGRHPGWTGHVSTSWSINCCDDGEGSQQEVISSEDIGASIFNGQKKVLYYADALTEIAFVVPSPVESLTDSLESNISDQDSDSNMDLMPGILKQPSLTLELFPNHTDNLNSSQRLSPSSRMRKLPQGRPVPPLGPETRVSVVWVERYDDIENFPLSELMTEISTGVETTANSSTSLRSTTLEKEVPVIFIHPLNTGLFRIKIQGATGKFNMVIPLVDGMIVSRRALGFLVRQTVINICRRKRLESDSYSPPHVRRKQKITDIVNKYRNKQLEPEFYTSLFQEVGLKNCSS
UniProt Q6GYQ0: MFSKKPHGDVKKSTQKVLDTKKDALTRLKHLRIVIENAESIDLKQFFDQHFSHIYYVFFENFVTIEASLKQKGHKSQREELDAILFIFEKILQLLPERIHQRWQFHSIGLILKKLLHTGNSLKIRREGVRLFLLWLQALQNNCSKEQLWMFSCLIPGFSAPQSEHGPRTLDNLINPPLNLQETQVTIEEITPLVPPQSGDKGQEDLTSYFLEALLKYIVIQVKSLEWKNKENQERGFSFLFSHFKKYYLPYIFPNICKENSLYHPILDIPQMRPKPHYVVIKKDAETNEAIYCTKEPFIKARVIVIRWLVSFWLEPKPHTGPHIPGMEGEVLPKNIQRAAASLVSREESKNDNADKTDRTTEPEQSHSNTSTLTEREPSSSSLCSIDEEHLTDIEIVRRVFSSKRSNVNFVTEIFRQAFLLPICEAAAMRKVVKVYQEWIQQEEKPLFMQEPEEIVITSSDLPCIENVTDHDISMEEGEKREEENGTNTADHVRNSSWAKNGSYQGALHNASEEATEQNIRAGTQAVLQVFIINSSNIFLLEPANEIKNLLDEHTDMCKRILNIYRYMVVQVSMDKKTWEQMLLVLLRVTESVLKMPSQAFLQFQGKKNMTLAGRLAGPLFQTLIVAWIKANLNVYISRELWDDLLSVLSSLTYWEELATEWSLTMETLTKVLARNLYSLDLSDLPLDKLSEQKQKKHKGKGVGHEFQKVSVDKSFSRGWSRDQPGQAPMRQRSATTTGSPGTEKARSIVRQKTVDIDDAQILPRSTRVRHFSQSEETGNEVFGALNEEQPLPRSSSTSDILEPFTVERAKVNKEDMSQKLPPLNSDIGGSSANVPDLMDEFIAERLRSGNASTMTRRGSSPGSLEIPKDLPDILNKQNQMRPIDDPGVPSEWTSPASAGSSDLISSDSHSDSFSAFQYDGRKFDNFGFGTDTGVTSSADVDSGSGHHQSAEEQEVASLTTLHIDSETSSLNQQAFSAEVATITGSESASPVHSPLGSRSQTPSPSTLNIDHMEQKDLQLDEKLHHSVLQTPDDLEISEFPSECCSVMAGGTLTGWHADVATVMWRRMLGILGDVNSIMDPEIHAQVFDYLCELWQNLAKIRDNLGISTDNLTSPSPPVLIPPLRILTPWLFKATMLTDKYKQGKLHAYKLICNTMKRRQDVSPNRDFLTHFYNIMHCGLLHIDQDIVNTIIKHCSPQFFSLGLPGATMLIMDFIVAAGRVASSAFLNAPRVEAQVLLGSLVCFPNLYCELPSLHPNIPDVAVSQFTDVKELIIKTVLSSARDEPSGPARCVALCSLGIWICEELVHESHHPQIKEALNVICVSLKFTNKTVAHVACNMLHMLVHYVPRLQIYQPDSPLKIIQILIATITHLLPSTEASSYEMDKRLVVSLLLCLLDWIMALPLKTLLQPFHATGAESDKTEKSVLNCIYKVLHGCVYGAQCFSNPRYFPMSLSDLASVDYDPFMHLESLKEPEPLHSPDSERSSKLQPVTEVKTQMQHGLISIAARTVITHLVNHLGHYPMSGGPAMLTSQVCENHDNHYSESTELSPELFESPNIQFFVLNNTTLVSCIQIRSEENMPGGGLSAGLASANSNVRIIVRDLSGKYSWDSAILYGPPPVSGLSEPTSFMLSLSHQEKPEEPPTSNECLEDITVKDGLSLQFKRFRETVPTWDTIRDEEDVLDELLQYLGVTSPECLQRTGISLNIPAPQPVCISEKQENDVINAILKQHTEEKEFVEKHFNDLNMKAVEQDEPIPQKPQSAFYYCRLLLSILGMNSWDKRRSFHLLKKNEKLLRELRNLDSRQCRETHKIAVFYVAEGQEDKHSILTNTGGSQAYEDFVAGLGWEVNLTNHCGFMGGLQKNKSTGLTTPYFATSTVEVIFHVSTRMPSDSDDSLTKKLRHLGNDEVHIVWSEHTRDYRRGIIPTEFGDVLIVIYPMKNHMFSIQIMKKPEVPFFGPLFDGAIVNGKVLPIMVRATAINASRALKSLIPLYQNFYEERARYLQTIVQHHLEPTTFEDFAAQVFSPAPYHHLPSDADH
UniProt P62834: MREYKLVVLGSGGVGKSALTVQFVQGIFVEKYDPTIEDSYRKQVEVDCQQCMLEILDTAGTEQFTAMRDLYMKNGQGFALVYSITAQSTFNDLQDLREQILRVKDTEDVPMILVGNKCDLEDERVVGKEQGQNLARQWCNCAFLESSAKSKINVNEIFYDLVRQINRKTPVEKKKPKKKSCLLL
UniProt Q13636: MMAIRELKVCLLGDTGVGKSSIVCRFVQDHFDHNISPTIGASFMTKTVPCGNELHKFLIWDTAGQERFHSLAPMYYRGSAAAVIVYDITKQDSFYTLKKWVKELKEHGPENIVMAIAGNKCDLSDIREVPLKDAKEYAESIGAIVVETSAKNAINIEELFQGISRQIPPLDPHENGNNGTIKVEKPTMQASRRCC
UniProt Q99638: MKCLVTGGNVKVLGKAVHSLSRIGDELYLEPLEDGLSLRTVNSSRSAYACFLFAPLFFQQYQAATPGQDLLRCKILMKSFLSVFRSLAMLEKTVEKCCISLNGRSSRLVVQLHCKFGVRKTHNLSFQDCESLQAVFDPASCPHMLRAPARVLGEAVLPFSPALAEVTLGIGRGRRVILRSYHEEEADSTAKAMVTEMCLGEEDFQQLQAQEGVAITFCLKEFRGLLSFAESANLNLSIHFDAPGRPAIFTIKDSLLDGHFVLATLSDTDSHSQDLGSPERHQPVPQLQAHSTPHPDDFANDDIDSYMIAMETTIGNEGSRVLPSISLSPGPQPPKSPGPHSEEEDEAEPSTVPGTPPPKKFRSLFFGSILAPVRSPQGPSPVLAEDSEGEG
UniProt Q6VN20, whole entry, looked up: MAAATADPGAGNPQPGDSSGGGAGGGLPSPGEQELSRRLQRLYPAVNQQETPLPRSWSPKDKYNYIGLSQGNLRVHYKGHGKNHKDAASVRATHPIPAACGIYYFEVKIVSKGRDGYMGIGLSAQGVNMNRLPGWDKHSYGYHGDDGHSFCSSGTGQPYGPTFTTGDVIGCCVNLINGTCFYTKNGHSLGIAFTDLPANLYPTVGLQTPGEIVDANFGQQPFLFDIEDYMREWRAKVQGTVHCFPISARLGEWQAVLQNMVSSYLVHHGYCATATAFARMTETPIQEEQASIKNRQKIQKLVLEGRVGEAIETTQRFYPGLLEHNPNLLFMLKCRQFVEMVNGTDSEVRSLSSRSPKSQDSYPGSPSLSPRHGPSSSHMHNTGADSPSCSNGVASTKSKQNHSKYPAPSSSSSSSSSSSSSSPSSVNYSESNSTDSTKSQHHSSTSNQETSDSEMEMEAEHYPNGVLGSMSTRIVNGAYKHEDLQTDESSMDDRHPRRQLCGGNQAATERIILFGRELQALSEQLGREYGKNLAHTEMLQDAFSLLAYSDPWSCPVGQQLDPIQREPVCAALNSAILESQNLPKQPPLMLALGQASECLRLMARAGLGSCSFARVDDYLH
UniProt Q53S08: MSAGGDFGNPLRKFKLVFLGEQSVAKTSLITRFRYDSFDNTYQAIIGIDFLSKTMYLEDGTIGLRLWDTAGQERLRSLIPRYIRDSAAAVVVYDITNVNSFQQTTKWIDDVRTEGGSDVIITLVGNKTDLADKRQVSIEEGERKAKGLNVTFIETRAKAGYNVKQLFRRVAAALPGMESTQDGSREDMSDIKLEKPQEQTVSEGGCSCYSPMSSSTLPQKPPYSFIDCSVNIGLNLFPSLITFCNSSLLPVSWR

What follows are targets tested with C[C@H](C1=CC=C(C=C1)C(=O)NC2=C3C=CNC3=NC=C2)N (assay: log2 fold change, soluble protein after heating vs DMSO (PISA); higher = thermal stabilisation; K562 cells, 10 uM, 30 min; active = over 0.2 and 3.5 SD of the protein, either way, in both replicates (recomputed)).
How it was run: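 Thermal stability values are relative to control samples and come from duplicates. They are expressed as log2 fold changes. For measurement, K562 cells (2×10^6 cells/mL) received 10 μM compound for 30 min, and aliquots were heated for 3 min over 48°C-58°C, pooled, and extracted at 4°C in PBS with 0.5% NP-40. Soluble protein, the supernatant after 21,000xg for 90 min, was quantified by TMTpro 16plex LC-MS/MS with equalised channel sums.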

log2 fold change, inactive:
RASA1 (UniProt P20936) 0.041
RAB11FIP1 (UniProt Q6WKZ4) -0.038
RAB8B (UniProt Q92930) -0.345
RAP1B (UniProt F5GZG1) 0.241
RBM22 (UniProt Q9NW64) 0.121
RALY (UniProt Q9UKM9) 0.316
RASA2 (UniProt Q15283) 0.55
RAB11A (UniProt P62491) -0.091
RALGAPB (UniProt Q86X10) -0.204
RALGAPA1 isoform 6 (UniProt Q6GYQ0) 0.134
RALBP1 (UniProt Q15311) 0.319
RANBP2 (UniProt P49792) 0.103
RBM27 (UniProt Q9P2N5) -0.174
RB1CC1 (UniProt Q8TDY2) 0.033
RACK1 (UniProt D6RF23) 0.361
RAD51 (UniProt Q06609) -0.019
RAP1A (UniProt P62834) -0.088
RASSF5 (UniProt Q8WWW0) -0.05
RAPGEF6 isoform 4 (UniProt Q8TEU7) 0.066
RAB31 (UniProt Q13636) -0.037
RAD9A (UniProt Q99638) -0.119
RAD51AP1 (UniProt Q96B01) 0.02
RB1 (UniProt P06400) -0.07
RANBP10 (UniProt Q6VN20) 0.01
RACGAP1 (UniProt Q9H0H5) -0.067
RAB6D (UniProt Q53S08) 0.005
RAN (UniProt P62826) -0.041
RAB3GAP1 (UniProt Q15042) 0.216
RAPGEF2, A0A2R8YGD3 0.002
RALA (UniProt P11233) -0.097
RANGAP1 (UniProt P46060) 0.011
RAB8A isoform 2 (UniProt P61006) -0.068
RAC1 (UniProt P63000) -0.06

At a glance, part of the list above.
log2 fold change, inactive:
RASSF5 (UniProt Q8WWW0) -0.05
RAPGEF6 isoform 4 (UniProt Q8TEU7) 0.066
